Measurements reported in PubChem BioAssay AID1259254 (NCATS, 2017)

Purpose: 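Finding genes that stop cells copying their DNA twice in one cycle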 (primary screen)
Cell system: human HCT116 colorectal cancer cells
Reagent: single siRNA against human genes
Time to read-out: 3 days
Detection: 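Imaged Hoechst DNA stain sorts each cell into a cycle phase by DNA amount; per plate, G2 fraction set to 0% for non-targeting and 100% for GMNN siRNA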
Reading the numbers: G2 robust z-score and G2 cells, % of GMNN control: higher = more G2 cells, more excess DNA replication; raw share of cells in G2: higher = larger share of cells with G2 DNA content
Rule for the call: 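An siRNA counts as active if its G2 robust z-score lies at least 5 MADs above the screen median; here such calls match roughly 38% of GMNN control or more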
This is an unselected part of about 59,000 reagents. About 1,550 of them (2.6%) were called active. 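G2 share is only a proxy for re-replication; each gene was hit by three separate siRNAs, and active genes were retested.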 Raw values vary from plate to plate and are shown uncorrected. Entries without a mark were called inactive. Reagents against one gene are numbered here. Not stated in the record: the amount of reagent.

gene,siRNA no.,G2 robust z-score,"G2 cells, % of GMNN control",raw share of cells in G2 (%)
RBM5,1,-0.418,0.0286,5.71
RBM5,2,0.611,7.27,6.19
RBM5,3,-0.267,1.09,6.91
PEA15,1,0.721,8.04,8.7
PEA15,2,3.19,25.4,14
PEA15,3,-0.278,1.01,3.7
CCNH,1,-0.815,-2.77,3.98
CCNH,2,10.2 (active),74.5,31.6
CCNH,3,1.38,12.6,8.45
PCBD1,1,2.32,19.3,12.5
PCBD1,2,-0.487,-0.462,4.56
PCBD1,3,0.36,5.5,5.08
RAB43,1,2.07,17.5,10.7
RAB43,2,0.291,5.02,6.92
RAB43,3,0.043,3.27,7.32
CEBPE,1,-0.706,-2,4.25
CEBPE,2,0.907,9.35,8.41
CEBPE,3,2.87,23.1,12.1
SBSN,1,0.0942,3.63,4.85
SBSN,2,1.25,11.7,8.91
SBSN,3,2.62,21.4,11.3
HAT1,1,3.62,28.4,15.2
HAT1,2,-0.688,-1.87,3.69
HAT1,3,-0.337,0.593,4.92
GAL3ST2,1,0.578,7.04,8.56
GAL3ST2,2,1.55,13.9,9.27
GAL3ST2,3,-0.726,-2.14,3.45
ZCCHC2,1,3.74,29.3,14.1
ZCCHC2,2,0.987,9.92,8.45
ZCCHC2,3,0.699,7.89,5.8
CHSY1,1,-1.71,-9.08,2.73
CHSY1,2,1.82,15.8,9.44
CHSY1,3,0.333,5.31,5.68
FXYD2,1,0.503,6.51,7.39
FXYD2,2,-0.267,1.09,4.4
FXYD2,3,5.36 (active),40.6,18.6
GGA1,1,-1.21,-5.57,3.64
GGA1,2,-0.992,-4.01,2.68
GGA1,3,0.0965,3.65,5.4
FNTA,1,1.3,12.1,9.86
FNTA,2,-0.892,-3.31,4.03
FNTA,3,1.24,11.7,7.81
KRT27,1,0.485,6.38,6.76
KRT27,2,0.131,3.89,5.32
KRT27,3,-0.656,-1.65,2.54
SLC36A2,1,-0.223,1.4,4.3
SLC36A2,2,-0.626,-1.44,2.47
SLC36A2,3,2.91,23.4,11.2
